These are yes or no findings as the source states them, for the method shown. In cells and extracts the contact can be indirect. Some binding calls cover weakened binding; strength is not graded here. For part of these data: Sequences can lack the tags named with a protein.
Legend:
[1] = biological target: GST-MEF2C (UniProt Q06413); assay: pull-down; MBP-TBX5 immobilised on amylose resin or GST-MEF2C on glutathione sepharose beads (2-5 µg), incubated with 35S-labelled in vitro translated protein; 50 mM Tris pH 7.4, 100 mM NaCl, 0.05% NP40, 1 mM DTT, 10% glycerol, 0.05% BSA, 2 hours at 4 °C; SDS-PAGE, PhosphorImager; only the target purified
[2] = biological target: MBP-TBX5 (UniProt Q99593); assay: as above

The chains behind the UniProt entries cited, without tags or fusion partners.
UniProt Q06413: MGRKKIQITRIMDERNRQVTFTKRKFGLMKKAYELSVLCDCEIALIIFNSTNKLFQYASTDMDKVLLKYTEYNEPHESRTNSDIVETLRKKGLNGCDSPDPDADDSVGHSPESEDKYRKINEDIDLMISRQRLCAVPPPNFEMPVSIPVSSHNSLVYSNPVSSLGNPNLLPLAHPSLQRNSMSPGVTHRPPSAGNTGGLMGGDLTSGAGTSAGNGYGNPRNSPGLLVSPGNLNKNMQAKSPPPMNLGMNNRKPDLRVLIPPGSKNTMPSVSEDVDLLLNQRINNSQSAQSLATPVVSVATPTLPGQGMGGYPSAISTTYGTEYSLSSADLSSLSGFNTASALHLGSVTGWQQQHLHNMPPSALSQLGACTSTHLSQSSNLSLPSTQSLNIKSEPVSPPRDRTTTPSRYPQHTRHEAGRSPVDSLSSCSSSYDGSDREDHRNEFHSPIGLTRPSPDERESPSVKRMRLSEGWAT
UniProt P08659: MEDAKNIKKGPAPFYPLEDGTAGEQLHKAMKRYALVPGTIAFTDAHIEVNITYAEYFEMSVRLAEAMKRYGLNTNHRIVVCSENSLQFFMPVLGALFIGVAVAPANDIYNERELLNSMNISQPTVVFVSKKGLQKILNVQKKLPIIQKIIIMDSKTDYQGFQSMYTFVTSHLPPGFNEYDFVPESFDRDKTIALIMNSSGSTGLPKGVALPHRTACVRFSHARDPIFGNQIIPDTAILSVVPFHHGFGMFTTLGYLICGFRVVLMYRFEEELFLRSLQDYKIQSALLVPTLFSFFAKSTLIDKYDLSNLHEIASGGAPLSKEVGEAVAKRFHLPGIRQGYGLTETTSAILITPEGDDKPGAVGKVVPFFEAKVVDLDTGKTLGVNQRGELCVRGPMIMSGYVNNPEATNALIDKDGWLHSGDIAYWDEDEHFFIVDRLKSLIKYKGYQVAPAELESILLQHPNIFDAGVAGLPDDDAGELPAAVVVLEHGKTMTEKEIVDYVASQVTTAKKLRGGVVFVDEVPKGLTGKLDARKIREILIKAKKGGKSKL

binding [1]	binding [2]	Substance
no binding	no binding	Radiolabelled luciferase control protein (from UniProt P08659 1-550) (enzyme)
	binds	radiolabelled MEF2C (from UniProt Q06413 1-473)
